Laboratory results from paper PMC12264198.
Results are given in words; binding and its absence hold for the method and conditions named.

Sequences of proteins named here, by UniProt entry; tags and fusion partners are left off. A change or cut given only in a name is not applied to a line headed by its entry. Residues count along the entry.
UniProt Q9NZM1, residues 1-1997: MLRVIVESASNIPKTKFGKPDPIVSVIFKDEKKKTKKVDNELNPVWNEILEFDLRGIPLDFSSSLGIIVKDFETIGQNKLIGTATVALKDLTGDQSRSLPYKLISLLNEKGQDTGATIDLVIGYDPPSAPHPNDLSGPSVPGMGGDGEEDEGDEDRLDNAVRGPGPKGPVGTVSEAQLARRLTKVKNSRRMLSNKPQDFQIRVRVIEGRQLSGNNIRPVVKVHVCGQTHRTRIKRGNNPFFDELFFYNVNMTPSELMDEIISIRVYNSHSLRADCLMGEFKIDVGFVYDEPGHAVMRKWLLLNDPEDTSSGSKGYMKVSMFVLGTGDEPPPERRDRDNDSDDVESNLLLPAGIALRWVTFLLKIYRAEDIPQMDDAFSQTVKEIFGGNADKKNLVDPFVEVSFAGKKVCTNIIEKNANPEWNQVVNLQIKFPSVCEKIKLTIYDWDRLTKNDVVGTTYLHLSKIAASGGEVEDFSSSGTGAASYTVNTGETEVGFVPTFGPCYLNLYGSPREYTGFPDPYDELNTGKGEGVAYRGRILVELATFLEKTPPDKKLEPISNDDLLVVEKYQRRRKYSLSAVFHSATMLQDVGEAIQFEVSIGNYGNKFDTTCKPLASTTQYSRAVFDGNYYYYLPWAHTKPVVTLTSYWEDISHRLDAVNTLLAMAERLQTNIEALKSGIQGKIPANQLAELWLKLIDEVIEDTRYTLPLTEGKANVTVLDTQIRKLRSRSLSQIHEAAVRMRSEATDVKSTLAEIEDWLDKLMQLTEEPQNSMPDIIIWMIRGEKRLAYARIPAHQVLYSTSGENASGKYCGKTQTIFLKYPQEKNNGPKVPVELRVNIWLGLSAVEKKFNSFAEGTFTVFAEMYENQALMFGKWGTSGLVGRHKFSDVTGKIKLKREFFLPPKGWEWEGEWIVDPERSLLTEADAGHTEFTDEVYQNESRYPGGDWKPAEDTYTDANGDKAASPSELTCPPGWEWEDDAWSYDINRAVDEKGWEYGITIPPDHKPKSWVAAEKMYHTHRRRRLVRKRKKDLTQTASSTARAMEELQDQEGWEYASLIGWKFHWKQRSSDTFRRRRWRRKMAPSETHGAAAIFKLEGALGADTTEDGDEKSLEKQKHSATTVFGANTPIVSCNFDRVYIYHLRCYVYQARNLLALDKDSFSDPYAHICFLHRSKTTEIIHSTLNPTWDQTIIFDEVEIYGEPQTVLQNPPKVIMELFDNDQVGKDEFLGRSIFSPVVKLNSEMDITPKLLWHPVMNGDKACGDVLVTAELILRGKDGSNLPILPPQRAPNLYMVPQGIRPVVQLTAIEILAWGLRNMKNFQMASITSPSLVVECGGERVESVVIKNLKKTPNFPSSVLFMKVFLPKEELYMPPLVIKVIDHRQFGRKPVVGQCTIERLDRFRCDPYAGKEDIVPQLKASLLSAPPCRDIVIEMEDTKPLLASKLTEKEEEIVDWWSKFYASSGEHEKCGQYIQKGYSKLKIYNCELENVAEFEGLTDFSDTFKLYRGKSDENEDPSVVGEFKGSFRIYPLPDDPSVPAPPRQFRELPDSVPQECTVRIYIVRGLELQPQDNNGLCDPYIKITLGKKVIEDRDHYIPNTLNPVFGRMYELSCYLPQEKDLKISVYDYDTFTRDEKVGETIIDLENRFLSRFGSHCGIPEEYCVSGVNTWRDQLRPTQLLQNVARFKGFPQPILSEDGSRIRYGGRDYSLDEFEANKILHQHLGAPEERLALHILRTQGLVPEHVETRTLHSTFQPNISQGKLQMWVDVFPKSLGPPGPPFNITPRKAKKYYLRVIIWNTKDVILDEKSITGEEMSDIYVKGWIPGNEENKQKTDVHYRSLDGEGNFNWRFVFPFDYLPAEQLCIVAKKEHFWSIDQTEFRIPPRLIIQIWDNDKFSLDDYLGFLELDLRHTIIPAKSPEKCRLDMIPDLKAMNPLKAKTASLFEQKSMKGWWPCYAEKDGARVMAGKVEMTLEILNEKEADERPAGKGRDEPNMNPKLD

Biological target: soluble human myoferlin (residues 1-1997) (human) (UniProt Q9NZM1)
Assay: SEC; Superose 6 Increase 10/300 GL; 25 mM HEPES-KOH pH 7.5, 150-200 mM KCl, 1.25-2.5% glycerol, 1 mM DTT (or 0.5 mM TCEP), 0.5 mM CaCl2; both purified

Question: How did the binding turn out when “soluble human myoferlin (residues 1-1997) (from UniProt Q9NZM1-1 1-1997) (domain or fragment)” was run?
Answer: no binding
